Literature values in US20040058852A1, “Use of gap-junction blockers in neurodegenerative disease” (priority 2002, published 2004).
For at least one compound, name, drawing or mass did not settle the structure.

Test system: neonatal seizures
Conditions: early high-dose; cited from earlier work

## CCC1(c2ccccc2)C(=O)NC(=O)NC1=O [phenobarbital]
  reduction in the incidence of neonatal seizures: 27%
